The text below walks through data of publication PMC10319584.

Sequences of proteins named here, by UniProt entry; tags and fusion partners are left off. Residues count along the entry.
UniProt P31946: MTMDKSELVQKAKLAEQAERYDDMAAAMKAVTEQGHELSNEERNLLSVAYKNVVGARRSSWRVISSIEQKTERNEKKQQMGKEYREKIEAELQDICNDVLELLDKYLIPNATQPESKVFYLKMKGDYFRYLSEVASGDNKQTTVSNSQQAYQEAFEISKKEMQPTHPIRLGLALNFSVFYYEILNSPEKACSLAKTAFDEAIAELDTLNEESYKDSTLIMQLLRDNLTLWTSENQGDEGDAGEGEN
UniProt Q07021, residues 74-282: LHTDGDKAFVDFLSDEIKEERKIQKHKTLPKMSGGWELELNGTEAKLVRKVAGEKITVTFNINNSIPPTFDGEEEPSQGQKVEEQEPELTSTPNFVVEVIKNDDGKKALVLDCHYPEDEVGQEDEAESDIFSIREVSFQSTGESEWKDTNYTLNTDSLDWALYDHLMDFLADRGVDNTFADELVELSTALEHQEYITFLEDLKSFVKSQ
UniProt P78417: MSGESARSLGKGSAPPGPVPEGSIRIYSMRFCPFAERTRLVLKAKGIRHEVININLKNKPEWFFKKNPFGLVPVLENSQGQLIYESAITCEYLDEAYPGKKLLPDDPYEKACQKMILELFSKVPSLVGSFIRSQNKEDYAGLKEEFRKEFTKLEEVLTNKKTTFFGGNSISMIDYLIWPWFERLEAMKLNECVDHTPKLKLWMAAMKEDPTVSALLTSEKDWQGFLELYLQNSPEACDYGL
UniProt Q9BQA1: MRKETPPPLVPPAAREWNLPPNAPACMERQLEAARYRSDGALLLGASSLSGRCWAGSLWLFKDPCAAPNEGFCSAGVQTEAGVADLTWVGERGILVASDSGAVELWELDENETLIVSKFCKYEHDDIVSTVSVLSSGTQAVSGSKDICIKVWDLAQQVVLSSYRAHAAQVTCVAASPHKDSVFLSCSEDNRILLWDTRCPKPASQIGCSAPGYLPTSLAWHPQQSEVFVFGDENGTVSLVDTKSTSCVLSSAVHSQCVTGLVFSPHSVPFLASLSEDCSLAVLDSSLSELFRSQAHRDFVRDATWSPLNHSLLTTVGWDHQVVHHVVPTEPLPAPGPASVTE
UniProt P54105: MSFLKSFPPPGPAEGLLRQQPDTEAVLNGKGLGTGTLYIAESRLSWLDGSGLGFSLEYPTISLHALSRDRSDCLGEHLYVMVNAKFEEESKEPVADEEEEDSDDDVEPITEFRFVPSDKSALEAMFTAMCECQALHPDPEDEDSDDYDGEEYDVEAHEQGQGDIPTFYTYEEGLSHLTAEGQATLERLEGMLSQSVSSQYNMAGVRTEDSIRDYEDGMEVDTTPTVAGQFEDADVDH
UniProt P12004: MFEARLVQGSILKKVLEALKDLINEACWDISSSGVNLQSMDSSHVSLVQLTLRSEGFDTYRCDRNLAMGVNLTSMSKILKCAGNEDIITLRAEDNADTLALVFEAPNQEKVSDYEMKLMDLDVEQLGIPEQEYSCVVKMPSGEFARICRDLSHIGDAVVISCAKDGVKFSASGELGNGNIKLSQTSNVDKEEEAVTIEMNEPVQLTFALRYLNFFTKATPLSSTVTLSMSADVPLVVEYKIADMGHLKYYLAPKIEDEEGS
UniProt O94903: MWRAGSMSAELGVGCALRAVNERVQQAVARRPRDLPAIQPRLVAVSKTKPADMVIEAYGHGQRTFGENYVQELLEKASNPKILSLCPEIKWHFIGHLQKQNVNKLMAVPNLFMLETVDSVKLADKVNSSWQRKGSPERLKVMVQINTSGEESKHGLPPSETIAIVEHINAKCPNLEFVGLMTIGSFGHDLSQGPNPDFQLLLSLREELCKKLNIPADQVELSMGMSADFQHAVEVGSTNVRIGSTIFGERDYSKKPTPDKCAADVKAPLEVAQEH
UniProt P62136: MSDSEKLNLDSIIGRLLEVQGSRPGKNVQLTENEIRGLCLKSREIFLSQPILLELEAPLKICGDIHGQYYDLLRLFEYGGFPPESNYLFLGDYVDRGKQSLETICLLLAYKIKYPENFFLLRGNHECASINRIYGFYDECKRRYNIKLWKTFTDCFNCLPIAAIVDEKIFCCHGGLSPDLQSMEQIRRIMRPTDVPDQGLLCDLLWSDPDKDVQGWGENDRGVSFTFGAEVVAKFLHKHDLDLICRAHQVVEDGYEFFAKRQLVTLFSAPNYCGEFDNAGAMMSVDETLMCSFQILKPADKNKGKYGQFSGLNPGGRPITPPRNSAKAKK
UniProt Q9Y657: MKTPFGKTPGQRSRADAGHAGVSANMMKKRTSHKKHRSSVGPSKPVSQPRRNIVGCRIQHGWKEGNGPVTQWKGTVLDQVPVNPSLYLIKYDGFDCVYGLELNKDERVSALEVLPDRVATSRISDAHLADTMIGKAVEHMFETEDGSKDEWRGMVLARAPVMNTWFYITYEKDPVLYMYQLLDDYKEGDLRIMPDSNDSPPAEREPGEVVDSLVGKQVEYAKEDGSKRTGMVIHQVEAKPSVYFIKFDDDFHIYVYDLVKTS

These are yes or no findings as the source states them, for the method shown. In cells and extracts the contact can be indirect. A yes stands for co-enrichment or nearness to the bait. Other partners may have been found. Where a sequence is shown, tags or fusion partners need not be part of it.

To fix the notation:
T1: FLAG-Fra-1 (Fos-related antigen 1) (UniProt P15407)
T1 sequence: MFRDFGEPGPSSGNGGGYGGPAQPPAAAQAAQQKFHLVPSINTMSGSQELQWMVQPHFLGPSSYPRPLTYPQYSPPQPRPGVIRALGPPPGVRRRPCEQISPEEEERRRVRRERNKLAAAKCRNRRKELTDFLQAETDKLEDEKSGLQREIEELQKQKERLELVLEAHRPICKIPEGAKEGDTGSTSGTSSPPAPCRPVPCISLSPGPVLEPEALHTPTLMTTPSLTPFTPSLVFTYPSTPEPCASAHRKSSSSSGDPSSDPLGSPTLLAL

B1: Elongation factor 1-beta (protein, UniProt P24534 1-225)
chain: MGFGDLKSPAGLQVLNDYLADKSYIEGYVPSQADVAVFEAVSSPPPADLCHALRWYNHIKSYEKEKASLPGVKKALGKYGPADVEDTTGSGATDSKDDDDIDLFGSDDEEESEEAKRLREERLAQYESKKAKKPALVAKSSILLDVKPWDDETDMAKLEECVRSIQADGLVWGSSKLVPVGYGIKKLQIQCVVEDDKVGTDMLEEQITAFEDYVQSMDVAAFNKI
B2: tyrosine 3-monooxygenase/tryptophan 5-monooxygenase activation protein eta (YWHAH) (protein, UniProt Q04917 1-246)
chain: MGDREQLLQRARLAEQAERYDDMASAMKAVTELNEPLSNEDRNLLSVAYKNVVGARRSSWRVISSIEQKTMADGNEKKLEKVKAYREKIEKELETVCNDVLSLLDKFLIKNCNDFQYESKVFYLKMKGDYYRYLAEVASGEKKNSVVEASEAAYKEAFEISKEQMQPTHPIRLGLALNFSVFYYEIQNAPEQACLLAKQAFDDAIAELDTLNEDSYKDSTLIMQLLRDNLTLWTSDQQDEEAGEGN
B3: Fructose-bisphosphate aldolase (protein, UniProt P04075 1-364)
chain: MPYQYPALTPEQKKELSDIAHRIVAPGKGILAADESTGSIAKRLQSIGTENTEENRRFYRQLLLTADDRVNPCIGGVILFHETLYQKADDGRPFPQVIKSKGGVVGIKVDKGVVPLAGTNGETTTQGLDGLSERCAQYKKDGADFAKWRCVLKIGEHTPSALAIMENANVLARYASICQQNGIVPIVEPEILPDGDHDLKRCQYVTEKVLAAVYKALSDHHIYLEGTLLKPNMVTPGHACTQKFSHEEIAMATVTALRRTVPPAVTGITFLSGGQSEEEASINLNAINKCPLLKPWALTFSYGRALQASALKAWGGKKENLKAAQEEYVKRALANSLACQGKYTPSGQAGAAASESLFVSNHAY

This assay deals with T1, FLAG-Fra-1 (Fos-related antigen 1). Kind of assay: affinity purification with mass spectrometry; FLAG-Fra-1 precipitated with anti-FLAG affinity gel beads from SGC7901 cells; SDS-PAGE, Coomassie stain, band at 25~40 kDa cut out, trypsin digest, LC-MS/MS; proteins specific to the FLAG lane against the IgG lane.
Consider “14-3-3 protein beta/alpha (from UniProt P31946 1-246)”, for which the binding result was “binds”.

In the case of “Complement component 1 Q subcomponent-binding protein, mitochondrial (from UniProt Q07021 74-282)”, the binding result was “binds”.

In the case of “Glutathione S-transferase omega-1 (Fragment) (from UniProt P78417 1-241)”, the binding result is reported as “binds”.

In the case of “Methylosome protein 50 (from UniProt Q9BQA1 1-342)”, the binding result was “binds”.

“Methylosome subunit pICln (from UniProt P54105 1-237)”: the binding result was “binds”.

For “Proliferating cell nuclear antigen (from UniProt P12004 1-261)”, the binding entry is given as “binds”.

For “Pyridoxal phosphate homeostasis protein (from UniProt O94903 1-275)”, the binding result is recorded as “binds”.

In the case of “Serine/threonine-protein phosphatase PP1-alpha catalytic subunit (from UniProt P62136 1-330)”, the binding entry is “binds”.

Turning to Spindlin-1 (from UniProt Q9Y657 1-262), the binding entry is reported as “binds”.

For the molecule B1, the binding entry is reported as “binds”.

Turning to B2, the binding entry is “binds”.

Take B3: the binding result is given as “binds”.
